# Measured values as given in US5410052A, “Symmetrical and unsymmetrical polyalkylamine metal complexes for ligand extraction and generation” (The Regents of the University of California, priority 1990, dated 1995).
# How the values were obtained:
# [1] = Coulometry of cobalt PAA carrier compounds (oxygen release); conditions: cobalt complex; for O2 Rate: EApp 0.70 V
# Description: Coulometry techniques allow the determination of the relative energetics and rates of oxygen release. For such experiments, solutions similarly to those outlined above for cyclic voltammetry are placed in a three-electrode electrolysis cell equipped with a Clark-type oxygen probe. […] Each oxidizing potential is held constant with respect to a silver-silver chloride reference electrode. The resulting current is integrated over time to yield the amount of carrier compounded oxidized. By employing the same electrode geometry, solution volume, stirring rate, information about the relative rate and amount of oxygen release (the "O2 rate") can be determined, at a particular applied cell voltage. Eapp from the response of the oxygen probe.
# The expected amount of oxygen evolved is given one-half the total integrated charge through the cell divided by F=96,484 C/mole, since theoretically, two electrons are required to oxidize the two cobalt ions and release one oxygen molecule. The ratio of this figure to the actual amount of oxygen produced is "% O2 max", at the minimum voltage, Vmin, required to produce oxygen. In additional, the "voltage window" the difference between the anodic oxygen evolution and cathodic reduction potentials is measured.
# A typical cyclic voltammetry trace, for the oxygenated Co(II) complex of PAA No. 72 using a glassy carbon electrode, is shown in FIG. 6. Coulometry data for several cobalt carrier compounds is summarized in Table V. The couliometric data reported on the average of three to five experiments. The standard deviations for O2 rate were +/=0.36 microliters per minute.
# [2] = Demonstration unit results for cobalt carrier compounds; conditions: cobalt complex
# Description: These components together form a sealed system containing a fixed volume of ligand carrier and carrier fluid. The apparatus shown in FIG. 9 is generally of a type generally intended for relatively larger scale production of oxygen. The electrochemical cell comprises twenty parallel TEFLON® (polytetrafluoroethylene, a trademark of the DuPont Company, Wilmington, Del.) plates having sputtered gold surfaces, between which the carrier fluid id directed, in parallel. The plates are 3 mm thick and spaced at a distance of 1 mm. An individual place is 62.5 cm long and 8 cm wide. When stacked in a parallel plate arrangement, the twenty layers have a total height of 8 cm. The use of a bipolar cell such as this enables the use of higher voltages at proportionately small currents than would be required to operate a single anode, single cathode cell of the same surface area. The electrochemical cell is connected to a voltage supply capable of providing 20 amps at 0.1 volt. The unloading station comprises one or more (one is shown) hollow fiber cartridges 1 inch in diameter and 43 inches in length containing hollow fibers which consist of porous polysulfone with an interior silicon rubber skin. The surface area of the hollow fibers is 0.25 m^2. When more than one such cartridge is used, they are arranged for parallel flow to a commensurate fraction of the total carrier fluid flow through the apparatus. Polyvinylchloride or polypropylene piping is used to connect various inlet and outlet ports. The outlet port of the first electrode compartment is connected to the inlet port of the small of the two hollow fiber cartridges so that the fluid which exists from the first electrode compartment enters the interior or the hollow fibers. This outlet port of the hollow fiber cartridge is connected to the inlet port of the second electrode compartment. The inlet port of the first electrode compartment is connected to the outlet port of the ligand extracting station while the outlet port of the second electrode compartment is connected through a pump to the inlet port of the ligand extracting station. In the embodiment shown, the ligand extracting station comprises one or more (one is shown) hollow fiber cartridges 3 inches in diameter and 43 inches in length, arranged for simultaneous parallel flow through the cartridges when more than one is used. Each cartridge contains 660 hollow fibers made of porous polysulfone with an interior silicon rubber skin. The hollow fibers have a membrane surface area of 2.5 m^2 and an interior volume of 646 ml. The space surrounding the hollow fibers is in communication with the electrochemical cell, not the interior of the hollow filbers. A fluid containing the ligand which is being extracted passes through the interior of the hollow fibers.
# Approximately 1 liter of the carrier fluid is present in the interior volume of the apparatus as described above and the ligand extracting station together. Carrier fluid containing the ligand carrier having a ligand bound thereto passes from the exit port of the ligand extracting station into the inlet port of the first electrode compartment where a redox reaction takes place in order to release the ligand carrier having a ligand bound thereto passes from the exist port of the ligand extracting station into the inlet port of the first electrode compartment where a redox reaction takes place in order to release the ligand from the ligand carrier. Free ligand, carrier fluid, and nonbinding-state ligand carrier pass from the exist port of the first electrode chamber into the ligand unloading station where ligand passes through the walls of the ligand-permeable membrane and is collected. In the particular illustration shown, oxygen passes directly in the space where it is being utilized. It is also possible to pass fluids or chemical reactants over the outside of the hollow fibers. […]
# [3] = 75 mM PAA, 3380 mL/min, pH 5.0, 16 V (ten cell stock)
# [4] = 75 mM PAA, 3380 mL/min, pH 5.0, 18 V (ten cell stock)
# [5] = 100 mM PAA, 2000 mL/min, pH 7.0, 4 V (ten cell stock)
# [6] = 100 mM PAA, 2000 mL/min, pH 7.0, 9 V (ten cell stock)
Structure (SMILES),O2 Rate [1] [µL/min],"EC O2 (electrochemical oxygen production rate) [2, 3] [mL/min]","Power consumed [2, 3] [W/L/min.]","e-/O2 (electrons passed per molecule of O2 produced) [2, 3]","EC O2 (electrochemical oxygen production rate) [2, 4] [mL/min]","Power consumed [2, 4] [W/L/min.]","e-/O2 (electrons passed per molecule of O2 produced) [2, 4]",% O2 max ([1]; at the minimum voltage Vmin) [%],"EC O2 (electrochemical oxygen production rate) [2, 5] [mL/min]","Power consumed [2, 5] [W/L/min.]","e-/O2 (electrons passed per molecule of O2 produced) [2, 5]","EC O2 (electrochemical oxygen production rate) [2, 6] [mL/min]","Power consumed [2, 6] [W/L/min.]","e-/O2 (electrons passed per molecule of O2 produced) [2, 6]"
c1ccc(CNCCNCCNCc2ccccn2)nc1 [compound 62],1.4 ± 0.1,72.4,285,2.44,94.5,320,2.46,–,–,–,–,–,–,–
c1ccc(CNCCCNCCCNCc2ccccn2)nc1 [compound 64],1.5 ± 0.2,–,–,–,–,–,–,42,20.3,62,2.42,72.2,118,2.01
